Results are given in words; binding and its absence hold for the method and conditions named. For some assays here: Binding seen in cells or lysates may run through a third protein. Some binding calls cover weakened binding; strength is not graded here.
Key:
[1] = target: T1, Human MD2 (amino acids 19-160) (human) (UniProt Q9Y6Y9); experiment: SEC; Superdex 200; hTLR4–MD2 complex alone, co-expressed in High Five cells and co-purified by the protein A tag on MD2 (tag cleaved); elution against standard proteins; both purified
T1 sequence: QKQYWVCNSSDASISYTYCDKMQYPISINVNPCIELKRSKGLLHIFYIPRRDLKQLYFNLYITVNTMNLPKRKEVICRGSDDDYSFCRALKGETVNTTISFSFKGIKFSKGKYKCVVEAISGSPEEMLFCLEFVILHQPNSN

Amino acid sequences for entries named in this document (tags omitted). Residues count along the entry.
UniProt O00206, residues 27-631: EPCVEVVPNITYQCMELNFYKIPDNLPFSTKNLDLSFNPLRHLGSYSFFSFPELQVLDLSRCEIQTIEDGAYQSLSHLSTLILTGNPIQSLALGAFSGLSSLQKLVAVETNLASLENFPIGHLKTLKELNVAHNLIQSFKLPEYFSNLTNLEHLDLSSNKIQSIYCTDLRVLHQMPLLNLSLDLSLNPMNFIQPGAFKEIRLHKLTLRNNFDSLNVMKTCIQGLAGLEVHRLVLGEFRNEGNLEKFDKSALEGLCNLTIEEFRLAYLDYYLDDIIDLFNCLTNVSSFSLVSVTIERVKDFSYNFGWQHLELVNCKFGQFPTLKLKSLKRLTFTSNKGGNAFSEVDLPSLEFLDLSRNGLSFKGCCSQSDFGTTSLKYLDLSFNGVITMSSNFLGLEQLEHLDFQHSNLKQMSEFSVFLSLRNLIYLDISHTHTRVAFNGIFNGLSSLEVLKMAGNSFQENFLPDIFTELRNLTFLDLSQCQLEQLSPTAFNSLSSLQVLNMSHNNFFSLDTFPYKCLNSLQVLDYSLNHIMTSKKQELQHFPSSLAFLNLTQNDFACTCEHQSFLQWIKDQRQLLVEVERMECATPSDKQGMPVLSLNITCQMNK
UniProt Q9QUK6, residues 26-835: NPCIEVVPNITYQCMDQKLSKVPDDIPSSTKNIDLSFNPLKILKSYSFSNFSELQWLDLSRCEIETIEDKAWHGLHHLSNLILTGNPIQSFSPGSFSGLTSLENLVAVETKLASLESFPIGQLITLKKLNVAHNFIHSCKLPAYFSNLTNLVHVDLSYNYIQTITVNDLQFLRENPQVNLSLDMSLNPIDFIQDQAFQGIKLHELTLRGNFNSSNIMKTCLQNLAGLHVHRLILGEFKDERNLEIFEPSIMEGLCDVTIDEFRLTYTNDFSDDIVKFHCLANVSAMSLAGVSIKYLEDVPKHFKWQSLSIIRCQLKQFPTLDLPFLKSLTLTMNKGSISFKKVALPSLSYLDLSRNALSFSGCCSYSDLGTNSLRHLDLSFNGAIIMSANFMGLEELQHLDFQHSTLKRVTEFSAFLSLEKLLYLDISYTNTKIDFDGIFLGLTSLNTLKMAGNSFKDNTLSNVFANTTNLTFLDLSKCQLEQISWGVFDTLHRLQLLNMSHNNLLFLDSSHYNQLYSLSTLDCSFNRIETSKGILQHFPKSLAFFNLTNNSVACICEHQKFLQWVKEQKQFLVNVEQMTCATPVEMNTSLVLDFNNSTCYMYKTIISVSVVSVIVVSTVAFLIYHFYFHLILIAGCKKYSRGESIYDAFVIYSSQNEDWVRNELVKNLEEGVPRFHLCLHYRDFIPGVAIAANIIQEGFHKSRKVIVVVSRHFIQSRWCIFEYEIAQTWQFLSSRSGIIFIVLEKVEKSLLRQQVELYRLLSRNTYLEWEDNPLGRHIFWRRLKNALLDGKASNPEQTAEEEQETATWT

[2] = target: T2, NADPH oxidase 2 (NOX2), mouse, endogenous in RAW 264.7 macrophages (mouse (endogenous in RAW 264.7)) (UniProt Q61093); experiment: co-IP; RAW 264.7 cells stimulated with 200 uM palmitate for 1 h; immunoprecipitation with 10 ug anti-NOX2 from cytosolic fractions, protein A/G agarose, blot for TLR4
T2 sequence: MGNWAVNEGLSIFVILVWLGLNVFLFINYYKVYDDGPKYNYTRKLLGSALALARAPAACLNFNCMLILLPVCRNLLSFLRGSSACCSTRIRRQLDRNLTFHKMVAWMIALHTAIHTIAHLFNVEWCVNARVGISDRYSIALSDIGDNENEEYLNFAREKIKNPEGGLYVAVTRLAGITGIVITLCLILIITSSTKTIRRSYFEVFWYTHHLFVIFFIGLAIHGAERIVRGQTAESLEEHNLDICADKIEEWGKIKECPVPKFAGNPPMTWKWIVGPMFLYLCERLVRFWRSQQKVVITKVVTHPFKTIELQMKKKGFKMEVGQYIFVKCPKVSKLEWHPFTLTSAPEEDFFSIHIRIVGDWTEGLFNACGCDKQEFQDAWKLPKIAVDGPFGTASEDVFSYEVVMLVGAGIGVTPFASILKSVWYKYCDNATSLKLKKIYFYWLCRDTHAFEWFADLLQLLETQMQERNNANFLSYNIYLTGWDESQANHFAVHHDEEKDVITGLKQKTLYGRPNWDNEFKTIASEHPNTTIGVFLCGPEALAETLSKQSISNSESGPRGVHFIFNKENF

| Substance | binding [1] | binding [2] |
| --- | --- | --- |
| Human TLR4 (amino acids 27-631) (from UniProt O00206 27-631) (domain or fragment) | binds | – |
| Toll-like receptor 4 (TLR4), mouse, endogenous in RAW 264.7 macrophages (from UniProt Q9QUK6 26-835) | – | no binding |

From paper PMC5740170
